Assay results from the supplement of paper PMC10849652.
The list shows a part of the results.

Sequences of proteins named here, by UniProt entry; tags and fusion partners are left off. A change or cut given only in a name is not applied to a line headed by its entry.
UniProt P63208, whole entry, looked up: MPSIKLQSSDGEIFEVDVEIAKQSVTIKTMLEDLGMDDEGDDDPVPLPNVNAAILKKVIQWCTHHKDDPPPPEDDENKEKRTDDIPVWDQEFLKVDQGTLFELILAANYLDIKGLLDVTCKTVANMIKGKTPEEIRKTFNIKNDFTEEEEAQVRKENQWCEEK
UniProt Q9C0C4, whole entry, looked up: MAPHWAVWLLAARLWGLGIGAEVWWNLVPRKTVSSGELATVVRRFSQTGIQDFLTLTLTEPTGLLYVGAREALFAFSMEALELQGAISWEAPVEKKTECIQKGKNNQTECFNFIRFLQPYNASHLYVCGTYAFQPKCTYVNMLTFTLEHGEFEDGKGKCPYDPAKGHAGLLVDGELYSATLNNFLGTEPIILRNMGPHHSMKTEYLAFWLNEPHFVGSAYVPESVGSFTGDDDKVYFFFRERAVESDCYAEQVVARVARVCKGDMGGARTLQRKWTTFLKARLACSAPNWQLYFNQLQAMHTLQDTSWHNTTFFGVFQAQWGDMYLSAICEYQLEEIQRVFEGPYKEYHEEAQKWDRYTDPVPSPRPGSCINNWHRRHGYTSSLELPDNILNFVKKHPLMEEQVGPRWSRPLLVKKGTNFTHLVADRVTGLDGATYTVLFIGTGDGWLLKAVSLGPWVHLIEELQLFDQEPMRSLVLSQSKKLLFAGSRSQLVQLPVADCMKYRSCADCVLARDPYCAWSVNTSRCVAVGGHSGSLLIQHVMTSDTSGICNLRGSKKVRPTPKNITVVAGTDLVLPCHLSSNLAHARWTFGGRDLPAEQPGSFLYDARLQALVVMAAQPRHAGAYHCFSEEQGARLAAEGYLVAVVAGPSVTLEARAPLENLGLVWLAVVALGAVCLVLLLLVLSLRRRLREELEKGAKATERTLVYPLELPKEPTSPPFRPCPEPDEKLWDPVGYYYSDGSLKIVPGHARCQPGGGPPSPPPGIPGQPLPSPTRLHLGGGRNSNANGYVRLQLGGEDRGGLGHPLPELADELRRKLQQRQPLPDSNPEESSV
UniProt Q68CR1: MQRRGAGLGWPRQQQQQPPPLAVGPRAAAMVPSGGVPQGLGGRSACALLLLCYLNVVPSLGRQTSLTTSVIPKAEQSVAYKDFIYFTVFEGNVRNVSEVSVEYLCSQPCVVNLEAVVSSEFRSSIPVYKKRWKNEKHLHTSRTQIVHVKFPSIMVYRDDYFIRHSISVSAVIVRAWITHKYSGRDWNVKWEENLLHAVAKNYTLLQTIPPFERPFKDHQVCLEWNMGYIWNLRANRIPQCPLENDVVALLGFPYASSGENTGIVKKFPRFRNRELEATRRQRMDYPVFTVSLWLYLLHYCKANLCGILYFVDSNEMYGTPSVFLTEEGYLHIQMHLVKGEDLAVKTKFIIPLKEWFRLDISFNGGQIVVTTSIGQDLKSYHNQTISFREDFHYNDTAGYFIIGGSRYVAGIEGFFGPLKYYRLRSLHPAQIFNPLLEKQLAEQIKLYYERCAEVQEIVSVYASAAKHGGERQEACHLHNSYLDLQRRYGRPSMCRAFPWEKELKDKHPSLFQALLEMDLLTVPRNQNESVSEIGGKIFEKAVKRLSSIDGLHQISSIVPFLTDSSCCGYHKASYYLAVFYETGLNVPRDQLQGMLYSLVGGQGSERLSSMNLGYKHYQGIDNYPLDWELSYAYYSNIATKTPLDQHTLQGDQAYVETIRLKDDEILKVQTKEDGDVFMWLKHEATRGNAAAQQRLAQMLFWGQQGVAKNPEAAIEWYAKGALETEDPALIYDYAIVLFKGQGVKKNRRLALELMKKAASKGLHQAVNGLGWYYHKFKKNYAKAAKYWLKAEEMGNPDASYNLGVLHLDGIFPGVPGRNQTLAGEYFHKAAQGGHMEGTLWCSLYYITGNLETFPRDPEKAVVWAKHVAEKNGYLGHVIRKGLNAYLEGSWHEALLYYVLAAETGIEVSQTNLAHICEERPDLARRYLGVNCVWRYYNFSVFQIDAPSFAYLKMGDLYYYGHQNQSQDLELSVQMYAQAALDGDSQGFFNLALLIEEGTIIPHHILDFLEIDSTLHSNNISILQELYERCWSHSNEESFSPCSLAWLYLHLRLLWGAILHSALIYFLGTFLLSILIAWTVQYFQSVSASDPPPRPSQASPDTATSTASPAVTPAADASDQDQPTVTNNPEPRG
UniProt Q8IZQ5, whole entry, looked up: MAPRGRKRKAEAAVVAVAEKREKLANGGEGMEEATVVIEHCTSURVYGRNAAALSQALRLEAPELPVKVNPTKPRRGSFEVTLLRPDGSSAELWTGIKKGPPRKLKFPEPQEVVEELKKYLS
UniProt Q96EQ0: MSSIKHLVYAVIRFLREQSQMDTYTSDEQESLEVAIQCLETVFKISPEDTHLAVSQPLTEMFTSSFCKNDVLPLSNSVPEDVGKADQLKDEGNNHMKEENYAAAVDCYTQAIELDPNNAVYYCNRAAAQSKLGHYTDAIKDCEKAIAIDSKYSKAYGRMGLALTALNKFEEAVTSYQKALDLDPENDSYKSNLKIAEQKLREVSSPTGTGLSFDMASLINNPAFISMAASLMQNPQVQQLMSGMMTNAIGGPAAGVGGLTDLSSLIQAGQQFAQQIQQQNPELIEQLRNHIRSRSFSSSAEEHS
UniProt Q8NEM2: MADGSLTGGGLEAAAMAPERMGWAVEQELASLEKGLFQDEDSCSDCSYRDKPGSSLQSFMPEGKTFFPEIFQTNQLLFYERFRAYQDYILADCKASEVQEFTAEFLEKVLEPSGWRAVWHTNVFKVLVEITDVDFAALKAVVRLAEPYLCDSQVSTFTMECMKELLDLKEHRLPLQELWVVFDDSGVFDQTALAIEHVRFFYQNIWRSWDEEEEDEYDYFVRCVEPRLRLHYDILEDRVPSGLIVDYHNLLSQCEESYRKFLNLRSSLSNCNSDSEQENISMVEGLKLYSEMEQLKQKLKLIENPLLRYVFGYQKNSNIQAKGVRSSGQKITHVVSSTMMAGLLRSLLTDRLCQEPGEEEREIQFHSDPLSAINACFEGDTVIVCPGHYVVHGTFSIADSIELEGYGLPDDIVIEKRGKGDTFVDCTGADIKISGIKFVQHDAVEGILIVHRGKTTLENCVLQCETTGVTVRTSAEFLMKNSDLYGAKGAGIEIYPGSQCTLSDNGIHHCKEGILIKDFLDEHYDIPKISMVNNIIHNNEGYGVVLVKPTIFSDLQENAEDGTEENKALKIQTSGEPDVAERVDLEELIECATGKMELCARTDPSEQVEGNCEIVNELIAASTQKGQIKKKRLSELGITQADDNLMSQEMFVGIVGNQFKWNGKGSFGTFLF
UniProt Q8TD22: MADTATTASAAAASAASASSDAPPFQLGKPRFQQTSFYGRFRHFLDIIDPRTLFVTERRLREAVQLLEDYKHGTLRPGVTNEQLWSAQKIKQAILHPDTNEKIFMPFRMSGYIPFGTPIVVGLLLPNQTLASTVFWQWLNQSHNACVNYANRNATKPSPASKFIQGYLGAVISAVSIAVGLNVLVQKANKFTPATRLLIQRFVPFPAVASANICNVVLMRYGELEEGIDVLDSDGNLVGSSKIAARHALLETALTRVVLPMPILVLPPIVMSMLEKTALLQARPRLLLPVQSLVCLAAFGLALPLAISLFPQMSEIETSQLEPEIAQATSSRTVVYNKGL
UniProt Q96EE3: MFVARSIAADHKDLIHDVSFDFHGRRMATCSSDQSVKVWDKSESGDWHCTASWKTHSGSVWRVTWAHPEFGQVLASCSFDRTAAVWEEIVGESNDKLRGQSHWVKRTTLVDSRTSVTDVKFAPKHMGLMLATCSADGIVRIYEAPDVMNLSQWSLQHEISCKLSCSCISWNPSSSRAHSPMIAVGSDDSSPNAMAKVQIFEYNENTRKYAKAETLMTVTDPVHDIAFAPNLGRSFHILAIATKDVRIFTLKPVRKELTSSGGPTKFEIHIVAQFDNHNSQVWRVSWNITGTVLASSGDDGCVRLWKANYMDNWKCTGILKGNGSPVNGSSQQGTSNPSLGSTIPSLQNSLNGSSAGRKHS
UniProt P50453: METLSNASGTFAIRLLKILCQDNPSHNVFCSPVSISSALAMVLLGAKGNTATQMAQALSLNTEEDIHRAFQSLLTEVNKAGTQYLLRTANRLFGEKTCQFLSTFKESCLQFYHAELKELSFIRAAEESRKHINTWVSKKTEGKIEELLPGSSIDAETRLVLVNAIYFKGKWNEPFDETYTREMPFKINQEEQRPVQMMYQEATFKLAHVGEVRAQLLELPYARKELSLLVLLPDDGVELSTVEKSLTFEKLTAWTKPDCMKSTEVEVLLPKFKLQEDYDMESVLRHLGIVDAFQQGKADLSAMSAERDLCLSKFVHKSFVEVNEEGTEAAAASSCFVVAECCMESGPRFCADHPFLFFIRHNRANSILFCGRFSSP
UniProt P58004: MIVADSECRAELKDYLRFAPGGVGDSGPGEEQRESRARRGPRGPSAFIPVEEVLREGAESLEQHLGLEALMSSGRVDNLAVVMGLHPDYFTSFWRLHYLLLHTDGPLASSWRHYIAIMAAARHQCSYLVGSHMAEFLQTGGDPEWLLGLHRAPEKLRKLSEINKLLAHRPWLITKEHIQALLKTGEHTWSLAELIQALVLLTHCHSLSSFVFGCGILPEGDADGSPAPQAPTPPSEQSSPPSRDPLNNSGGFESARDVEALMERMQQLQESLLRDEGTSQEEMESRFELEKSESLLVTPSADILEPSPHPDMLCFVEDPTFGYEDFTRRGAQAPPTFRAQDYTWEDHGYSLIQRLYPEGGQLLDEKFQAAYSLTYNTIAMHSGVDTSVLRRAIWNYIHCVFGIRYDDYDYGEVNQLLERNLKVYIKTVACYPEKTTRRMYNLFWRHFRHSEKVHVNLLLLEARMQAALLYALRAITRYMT
UniProt P31947: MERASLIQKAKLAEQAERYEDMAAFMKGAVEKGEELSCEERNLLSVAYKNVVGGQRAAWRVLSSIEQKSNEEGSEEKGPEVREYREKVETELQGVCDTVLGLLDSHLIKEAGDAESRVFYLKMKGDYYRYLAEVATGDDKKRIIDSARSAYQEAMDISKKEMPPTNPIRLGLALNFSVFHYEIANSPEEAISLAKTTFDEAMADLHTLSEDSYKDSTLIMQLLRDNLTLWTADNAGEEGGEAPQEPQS
UniProt Q99719: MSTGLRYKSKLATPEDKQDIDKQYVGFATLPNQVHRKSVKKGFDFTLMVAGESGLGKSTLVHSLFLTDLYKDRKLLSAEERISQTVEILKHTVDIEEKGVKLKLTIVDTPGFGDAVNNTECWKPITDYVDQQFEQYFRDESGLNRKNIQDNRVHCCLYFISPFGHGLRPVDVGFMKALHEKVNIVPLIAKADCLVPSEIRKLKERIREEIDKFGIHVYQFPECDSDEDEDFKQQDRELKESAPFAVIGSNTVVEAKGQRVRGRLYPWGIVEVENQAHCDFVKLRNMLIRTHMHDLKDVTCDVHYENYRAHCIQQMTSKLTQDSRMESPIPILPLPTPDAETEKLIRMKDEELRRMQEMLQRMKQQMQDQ
UniProt Q8IXJ6: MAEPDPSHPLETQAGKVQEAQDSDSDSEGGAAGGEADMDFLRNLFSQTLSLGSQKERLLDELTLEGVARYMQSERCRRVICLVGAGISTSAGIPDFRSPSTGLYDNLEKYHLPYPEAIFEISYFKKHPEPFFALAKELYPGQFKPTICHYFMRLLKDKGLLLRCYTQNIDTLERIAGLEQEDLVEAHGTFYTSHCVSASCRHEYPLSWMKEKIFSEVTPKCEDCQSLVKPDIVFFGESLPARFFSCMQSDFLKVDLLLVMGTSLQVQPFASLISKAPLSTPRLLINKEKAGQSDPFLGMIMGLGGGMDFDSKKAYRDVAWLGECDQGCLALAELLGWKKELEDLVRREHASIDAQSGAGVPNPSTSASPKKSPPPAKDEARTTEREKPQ
UniProt O95470: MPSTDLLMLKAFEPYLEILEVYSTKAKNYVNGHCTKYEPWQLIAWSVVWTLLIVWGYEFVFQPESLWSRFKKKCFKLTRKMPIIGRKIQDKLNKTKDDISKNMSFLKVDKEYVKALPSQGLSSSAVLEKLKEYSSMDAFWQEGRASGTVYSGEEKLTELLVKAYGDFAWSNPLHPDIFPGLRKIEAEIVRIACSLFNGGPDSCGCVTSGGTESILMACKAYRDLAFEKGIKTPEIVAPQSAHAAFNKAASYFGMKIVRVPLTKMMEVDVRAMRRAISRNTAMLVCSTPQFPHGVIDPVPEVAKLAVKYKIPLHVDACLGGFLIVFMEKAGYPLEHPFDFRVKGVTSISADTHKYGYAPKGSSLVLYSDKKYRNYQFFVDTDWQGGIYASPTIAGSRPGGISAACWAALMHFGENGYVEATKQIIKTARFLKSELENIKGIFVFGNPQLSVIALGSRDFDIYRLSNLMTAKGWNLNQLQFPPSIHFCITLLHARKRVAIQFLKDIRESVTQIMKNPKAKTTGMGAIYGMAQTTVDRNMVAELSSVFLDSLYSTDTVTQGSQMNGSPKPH

Experiments:
Experiment in all cases: log2 fold change, soluble protein after heating vs DMSO (PISA); higher = thermal stabilisation; K562 cells, 10 uM, 30 min; active = over 0.2 and 3.5 SD of the protein, either way, in both replicates (recomputed)
[1] = compound: CC1=C(C=C(C=C1)NC(=O)C2=CC(=CC=C2)C(C)(C)C#N)NC3=CC4=C(C=C3)N=CN(C4=O)C
Outline: (§1)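 K562 cells at 2×10^6 cells/mL were treated for 30 min with 10 μM compound, and aliquots were heated for 3 min over 48°C-58°C before pooling. Extraction used PBS with 0.5% NP-40 at 4°C, and soluble protein was the supernatant after 21,000xg for 90 min, measured by TMTpro 16plex LC-MS/MS with channel sums equalised. Thermal stability values, relative to control samples and from duplicates, are log2 fold changes.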

[2] = compound: CC1=C(C=C(C=C1)NC(=O)C2=CC(=CC=C2)N(C)C)NC(=O)C3=CC=C(C=C3)O
Outline: as §1

[3] = compound: CC1=CC=C(C=C1)SC2=C3C=C(SC3=CN=C2)C(=O)N
Outline: as §1

[4] = compound: CC1=NC(=CC=C1)C2=C(N=C(N2)C(C)(C)C)C3=CC4=NC=CN=C4C=C3
Outline: as §1

[5] = compound: CCCCN(Cc1ccc(C(=O)NO)cc1)C(=O)Nc1ccccc1 [Nexturastat A]
Outline: as §1

[6] = compound: CCCS(=O)(=O)Nc1ccc(F)c(C(=O)c2c[nH]c3ncc(-c4ccc(Cl)cc4)cc23)c1F [vemurafenib]
Outline: as §1

[7] = compound: CCCS(=O)(=O)Nc1ccc(F)c(C(=O)c2c[nH]c3ncc(Cl)cc23)c1F
Outline: as §1

[8] = compound: CCCc1cc(C)[nH]c(=O)c1CNC(=O)c1cc(-c2ccnc(N3CCN(C)CC3)c2)cc2c1cnn2C(C)C
Outline: as §1

[9] = compound: CCN(CC)Cc1ccc2cc(COC(=O)Nc3ccc(C(=O)NO)cc3)ccc2c1 [givinostat]
Outline: as §1

[10] = compound: CCN(CCCOc1ccc2c(Nc3cc(CC(=O)Nc4cccc(F)c4)[nH]n3)ncnc2c1)CCOP(=O)(O)O [barasertib]
Outline: as §1

[11] = compound: CC[C@@H]1C(=O)N(C)c2cnc(Nc3ccc(C(=O)NC4CCN(C)CC4)cc3OC)nc2N1C1CCCC1
Outline: as §1

[12] = compound: CC[C@@H]1C(=O)N(C)c2cnc(Nc3ccc(C(=O)N[C@H]4CC[C@H](N5CCN(CC6CC6)CC5)CC4)cc3OC)nc2N1C(C)C [volasertib]
Outline: as §1

[13] = compound: CC[C@H](C)N1C=C(C2=C(C=C(C=C21)C3=CN=C(C=C3)N4CCNCC4)C(=O)NCC5=C(C=C(NC5=O)C)C)C
Outline: as §1

[14] = compound: CC[C@H](C)[C@@H](C(=O)N[C@@H]([C@@H](C)O)C(=O)N[C@@H](CC(C)C)C(=O)[C@]1(CO1)C)NC(=O)[C@H]([C@@H](C)CC)N(C)C(=O)C [epoxomicin]
Outline: as §1

[15] = compound: CCn1cc(-c2ccnc3[nH]c(-c4cccc(CN(C)C)c4)cc23)c(-c2ccc(NC(=O)N(C)C)cc2)n1
Outline: as §1

[16] = compound: CN(C)CC(=O)Nc1ccc2[nH]c(=O)c3ccccc3c2c1
Outline: as §1

[17] = compound: CN1C2=C(C3=C1C(=O)N(N=C3)CC4=CC(=CC=C4)N)SC(=C2)S(=O)C
Outline: as §1

[18] = compound: CN1CCC(CNc2ccc3ncc(-c4cccc(OC(F)(F)F)c4)n3n2)CC1
Outline: as §1

[19] = compound: CCn1c(C(=O)N(C2CC2)C2CC2)cc2c3c(ncn3C)c(Nc3cc(C)n(C)n3)nc21
Outline: as §1

[20] = compound: CN(CCOC1=CC=C(C=C1)C[C@H]2C(=O)NC(=O)S2)C3=CC=CC=N3 (racemic) [rosiglitazone]
Outline: as §1

Target | log2 fold change [1] | log2 fold change [2] | log2 fold change [3] | log2 fold change [4] | log2 fold change [5] | log2 fold change [6] | log2 fold change [7] | log2 fold change [8] | log2 fold change [9] | log2 fold change [10] | log2 fold change [11] | log2 fold change [12] | log2 fold change [13] | log2 fold change [14] | log2 fold change [15] | log2 fold change [16] | log2 fold change [17] | log2 fold change [18] | log2 fold change [19] | log2 fold change [20]
SKP1 (UniProt P63208) | inactive: 0.095 | inactive: 0.048 | inactive: 0.094 | inactive: 0.017 | inactive: -0.052 | inactive: -0.036 | inactive: 0.008 | inactive: -0.032 | inactive: -0.05 | inactive: -0.021 | inactive: -0.012 | inactive: -0.02 | inactive: -0.027 | inactive: 0.034 | inactive: -0.035 | inactive: -0.019 | inactive: -0.126 | inactive: 0.244 | – | –
SEMA4C (UniProt Q9C0C4) | inactive: -0.01 | inactive: -0.163 | inactive: 0.031 | inactive: -0.014 | inactive: 0.019 | inactive: 0.008 | inactive: -0.049 | inactive: -0.037 | inactive: 0.021 | inactive: 0.01 | inactive: -0.039 | inactive: -0.095 | inactive: -0.019 | inactive: 0.018 | inactive: -0.018 | inactive: -0.021 | inactive: -0.06 | inactive: 0.022 | inactive: -0.012 | inactive: 0.015
SEL1L3 (UniProt Q68CR1) | inactive: 0.042 | inactive: 0.013 | inactive: -0.042 | inactive: -0.059 | inactive: 0.117 | inactive: -0.072 | inactive: 0.017 | inactive: -0.014 | inactive: 0.069 | inactive: -0.111 | inactive: -0.021 | inactive: -0.067 | inactive: 0.087 | inactive: -0.01 | inactive: 0.024 | inactive: -0.015 | inactive: 0.05 | inactive: 0.282 | inactive: -0.05 | inactive: -0.044
SELENOH (UniProt Q8IZQ5) | inactive: 0.09 | inactive: -0.011 | inactive: 0.023 | inactive: -0.035 | inactive: 0.089 | inactive: 0.042 | inactive: 0.007 | inactive: 0.075 | inactive: 0.024 | inactive: -0.031 | inactive: 0.001 | inactive: 0.01 | inactive: -0.05 | inactive: 0.058 | inactive: -0.051 | inactive: 0.041 | inactive: 0.084 | inactive: 0.065 | – | –
SGTB (UniProt Q96EQ0) | inactive: 0.003 | inactive: 0.013 | inactive: -0.051 | inactive: 0.005 | inactive: -0.019 | inactive: 0.017 | inactive: -0.023 | inactive: 0.047 | inactive: 0.023 | inactive: 0.005 | inactive: -0.002 | inactive: -0.065 | inactive: 0.008 | inactive: 0.023 | inactive: -0.055 | inactive: -0.003 | – | inactive: 0.102 | inactive: -0.016 | inactive: -0.024
SHCBP1 (UniProt Q8NEM2) | inactive: 0 | inactive: -0.032 | inactive: 0 | inactive: 0.07 | inactive: 0.047 | inactive: 0.102 | inactive: 0.027 | inactive: -0.014 | inactive: 0.018 | inactive: 0.117 | inactive: -0.013 | inactive: -0.052 | inactive: 0.102 | inactive: -0.008 | inactive: 0.117 | inactive: 0.111 | inactive: 0.056 | inactive: -0.139 | – | –
SFXN5 (UniProt Q8TD22) | inactive: -0.013 | inactive: 0 | inactive: 0.049 | inactive: 0.024 | inactive: -0.026 | inactive: 0.135 | inactive: 0.012 | inactive: 0.012 | inactive: 0.124 | inactive: 0.057 | inactive: 0.048 | inactive: -0.034 | inactive: 0.022 | inactive: -0.009 | inactive: -0.039 | inactive: 0.006 | inactive: -0.209 | inactive: 0.063 | – | –
SEH1L isoform 1 (UniProt Q96EE3) | inactive: -0.004 | inactive: 0.015 | inactive: 0.005 | inactive: -0.019 | inactive: 0.011 | inactive: 0.005 | inactive: 0.048 | inactive: -0.033 | inactive: 0.005 | inactive: 0.008 | inactive: -0.044 | active: 0.466 | inactive: -0.019 | inactive: -0.057 | inactive: -0.041 | inactive: -0.013 | inactive: -0.054 | inactive: 0.027 | – | –
SERPINB6, A0A087X1N8 | inactive: -0.033 | inactive: -0.003 | inactive: -0.005 | inactive: 0.052 | inactive: -0.009 | inactive: 0.037 | inactive: 0.003 | inactive: 0.017 | inactive: -0.063 | inactive: -0.017 | inactive: -0.012 | inactive: 0.048 | inactive: 0.007 | inactive: 0.042 | inactive: -0.016 | inactive: -0.027 | inactive: -0.05 | inactive: -0.009 | inactive: -0.015 | inactive: -0.002
SERPINB9 (UniProt P50453) | inactive: -0.02 | inactive: 0.019 | inactive: 0.027 | inactive: 0.024 | inactive: -0.023 | inactive: -0.007 | inactive: 0.054 | inactive: -0.01 | inactive: -0.08 | inactive: 0.015 | inactive: -0.01 | inactive: 0.01 | inactive: -0.004 | inactive: 0.041 | inactive: -0.039 | inactive: -0.003 | inactive: -0.059 | inactive: -0.002 | inactive: 0.017 | inactive: -0.015
SESN2 (UniProt P58004) | inactive: 0.166 | inactive: -0.069 | inactive: -0.017 | inactive: -0.031 | inactive: 0.094 | inactive: 0.194 | inactive: 0.186 | inactive: 0.19 | inactive: 0.046 | inactive: 0.119 | inactive: -0.244 | active: -0.522 | inactive: 0.165 | inactive: 0.083 | inactive: -0.292 | inactive: 0.115 | inactive: 0.015 | inactive: -0.247 | – | –
SFN (UniProt P31947) | inactive: -0.038 | inactive: 0.034 | inactive: -0.117 | inactive: -0.022 | inactive: -0.145 | inactive: 0.022 | inactive: -0.136 | inactive: 0.047 | inactive: -0.038 | inactive: 0.02 | inactive: 0.164 | inactive: -0.012 | inactive: 0.003 | inactive: -0.006 | inactive: 0.012 | inactive: -0.019 | inactive: -0.039 | inactive: -0.051 | inactive: 0.026 | inactive: 0.03
SENP6 (UniProt Q9GZR1) | inactive: -0.048 | inactive: -0.006 | inactive: 0.037 | inactive: -0.007 | inactive: 0.247 | inactive: -0.028 | inactive: -0.01 | inactive: 0.077 | inactive: 0.057 | inactive: -0.026 | inactive: -0.086 | inactive: -0.07 | inactive: -0.044 | inactive: -0.039 | inactive: -0.022 | inactive: -0.017 | inactive: -0.014 | inactive: -0.038 | – | –
SEPTIN5 (UniProt Q99719) | inactive: 0.026 | inactive: 0 | inactive: 0.007 | inactive: 0.003 | inactive: -0.06 | inactive: -0.015 | inactive: -0.015 | inactive: 0.104 | inactive: -0.006 | inactive: -0.013 | inactive: 0.03 | inactive: 0.047 | inactive: -0.003 | inactive: -0.025 | inactive: -0.052 | inactive: -0.019 | inactive: -0.09 | inactive: -0.009 | – | –
SIRT2 (UniProt Q8IXJ6) | inactive: 0.014 | inactive: -0.051 | inactive: -0.016 | inactive: 0.027 | inactive: 0.004 | inactive: 0.012 | inactive: -0.022 | inactive: -0.002 | inactive: 0.004 | inactive: 0.015 | inactive: 0.077 | active: 0.624 | inactive: 0.043 | inactive: -0.015 | inactive: -0.038 | inactive: 0.009 | inactive: -0.041 | inactive: -0.025 | – | –
SGPL1 (UniProt O95470) | inactive: -0.036 | inactive: -0.056 | inactive: 0.014 | inactive: -0.054 | inactive: 0.031 | inactive: 0.033 | inactive: -0.036 | inactive: 0.074 | inactive: -0.035 | inactive: 0.051 | inactive: 0 | inactive: -0.04 | inactive: -0.002 | inactive: -0.066 | inactive: 0.009 | inactive: -0.023 | inactive: 0.047 | inactive: 0.189 | – | –

For reference, part of the list above:
Target | log2 fold change [1] | log2 fold change [2] | log2 fold change [3] | log2 fold change [4] | log2 fold change [5] | log2 fold change [6] | log2 fold change [7] | log2 fold change [8] | log2 fold change [9] | log2 fold change [10] | log2 fold change [11] | log2 fold change [12] | log2 fold change [13] | log2 fold change [14] | log2 fold change [15] | log2 fold change [16] | log2 fold change [17] | log2 fold change [18] | log2 fold change [19] | log2 fold change [20]
SFXN5 (UniProt Q8TD22) | inactive: -0.013 | inactive: 0 | inactive: 0.049 | inactive: 0.024 | inactive: -0.026 | inactive: 0.135 | inactive: 0.012 | inactive: 0.012 | inactive: 0.124 | inactive: 0.057 | inactive: 0.048 | inactive: -0.034 | inactive: 0.022 | inactive: -0.009 | inactive: -0.039 | inactive: 0.006 | inactive: -0.209 | inactive: 0.063 | – | –
SEH1L isoform 1 (UniProt Q96EE3) | inactive: -0.004 | inactive: 0.015 | inactive: 0.005 | inactive: -0.019 | inactive: 0.011 | inactive: 0.005 | inactive: 0.048 | inactive: -0.033 | inactive: 0.005 | inactive: 0.008 | inactive: -0.044 | active: 0.466 | inactive: -0.019 | inactive: -0.057 | inactive: -0.041 | inactive: -0.013 | inactive: -0.054 | inactive: 0.027 | – | –
